PubChem BioAssay AID493246 | Drosophila RNAi Screening Center – 2011
In all, the deposit lists about 21,000 reagents; shown is a random part of those that have a named target and a result. In the full data, 429 (2%) are marked active. 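Values are raw and not normalised between plates; calls rest on per-plate z-scores that were not deposited.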 A number with no mark means an inactive call. Reagents against one gene are numbered here. Not stated in the record: the amount of reagent, the time to read-out.

Test: 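Genome-wide search for dsRNAs that reduce cell number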 (primary screen)
Cells: Drosophila Kc and S2R+ cells
Knock-down reagent: long dsRNA against Drosophila genes
Measured: 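Raw, unnormalised count of remaining cells in each well; per-plate z-scores of cell number underlie the calls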
Reading the numbers: Kc cell number and S2R+ cell number: higher = more cells remaining
Active means: 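Active when the per-plate z-score of cell number is 3 or more in the direction of fewer cells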

hiw #1 | Kc cell number, rep 1 = 1.57e6; Kc cell number, rep 2 = 1.56e6; S2R+ cell number, rep 1 = 1.05e6; S2R+ cell number, rep 2 = 1.20e6
hiw #2 | Kc cell number, rep 1 = 1.57e6; Kc cell number, rep 2 = 1.61e6; S2R+ cell number, rep 1 = 1.12e6; S2R+ cell number, rep 2 = 1.25e6
bero | Kc cell number, rep 1 = 1.55e6; Kc cell number, rep 2 = 1.68e6; S2R+ cell number, rep 1 = 1.30e6; S2R+ cell number, rep 2 = 3.91e5
CG8229 | Kc cell number, rep 1 = 1.36e6; Kc cell number, rep 2 = 1.45e6; S2R+ cell number, rep 1 = 1.10e6; S2R+ cell number, rep 2 = 1.16e6
CG32176 #1 | Kc cell number, rep 1 = 1.56e6; Kc cell number, rep 2 = 1.57e6; S2R+ cell number, rep 1 = 1.19e6; S2R+ cell number, rep 2 = 1.33e6
CG32176 #2 | Kc cell number, rep 1 = 1.37e6; Kc cell number, rep 2 = 1.48e6; S2R+ cell number, rep 1 = 1.22e6; S2R+ cell number, rep 2 = 1.34e6
CG11382 | Kc cell number, rep 1 = 1.51e6; Kc cell number, rep 2 = 1.55e6; S2R+ cell number, rep 1 = 1.08e6; S2R+ cell number, rep 2 = 1.24e6
CG15580 | Kc cell number, rep 1 = 1.65e6; Kc cell number, rep 2 = 1.81e6; S2R+ cell number, rep 1 = 1.29e6; S2R+ cell number, rep 2 = 1.32e6
rad50 | Kc cell number, rep 1 = 1.23e6; Kc cell number, rep 2 = 1.29e6; S2R+ cell number, rep 1 = 1.07e6; S2R+ cell number, rep 2 = 1.14e6
CG13492 | Kc cell number, rep 1 = 1.58e6; Kc cell number, rep 2 = 1.59e6; S2R+ cell number, rep 1 = 1.25e6; S2R+ cell number, rep 2 = 3.70e5
CG14096 | Kc cell number, rep 1 = 1.35e6; Kc cell number, rep 2 = 1.46e6; S2R+ cell number, rep 1 = 1.21e6; S2R+ cell number, rep 2 = 1.33e6
Zdhhc8 #1 | Kc cell number, rep 1 = 1.50e6; Kc cell number, rep 2 = 1.59e6; S2R+ cell number, rep 1 = 8.91e5; S2R+ cell number, rep 2 = 1.06e6
Zdhhc8 #2 | Kc cell number, rep 1 = 1.61e6; Kc cell number, rep 2 = 1.61e6; S2R+ cell number, rep 1 = 1.02e6; S2R+ cell number, rep 2 = 1.12e6
CG12910 | Kc cell number, rep 1 = 1.34e6; Kc cell number, rep 2 = 1.34e6; S2R+ cell number, rep 1 = 1.10e6; S2R+ cell number, rep 2 = 1.17e6
kmg | Kc cell number, rep 1 = 1.59e6; Kc cell number, rep 2 = 1.65e6; S2R+ cell number, rep 1 = 1.34e6; S2R+ cell number, rep 2 = 1.52e6
CG31601 | Kc cell number, rep 1 = 4.62e5; S2R+ cell number, rep 1 = 8.52e5
ppk16 | Kc cell number, rep 1 = 1.54e6; Kc cell number, rep 2 = 1.58e6; S2R+ cell number, rep 1 = 1.23e6; S2R+ cell number, rep 2 = 1.46e6
AcCoAS #1 | Kc cell number, rep 1 = 1.34e6; Kc cell number, rep 2 = 1.40e6; S2R+ cell number, rep 1 = 9.97e5; S2R+ cell number, rep 2 = 1.11e6
AcCoAS #2 | Kc cell number, rep 1 = 1.57e6; Kc cell number, rep 2 = 1.62e6; S2R+ cell number, rep 1 = 1.18e6; S2R+ cell number, rep 2 = 1.28e6
CG16734 | Kc cell number, rep 1 = 1.66e6; Kc cell number, rep 2 = 1.79e6; S2R+ cell number, rep 1 = 1.37e6; S2R+ cell number, rep 2 = 1.45e6
Chchd2 | Kc cell number, rep 1 = 1.64e6; Kc cell number, rep 2 = 1.63e6; S2R+ cell number, rep 1 = 1.12e6; S2R+ cell number, rep 2 = 1.29e6
CG32793 #1 | Kc cell number, rep 1 = 1.47e6; Kc cell number, rep 2 = 1.50e6; S2R+ cell number, rep 1 = 1.04e6; S2R+ cell number, rep 2 = 1.14e6
CG32793 #2 | Kc cell number, rep 1 = 1.42e6; Kc cell number, rep 2 = 1.46e6; S2R+ cell number, rep 1 = 1.03e6; S2R+ cell number, rep 2 = 1.12e6
Bgb | Kc cell number, rep 1 = 1.38e6; Kc cell number, rep 2 = 1.41e6; S2R+ cell number, rep 1 = 1.16e6; S2R+ cell number, rep 2 = 1.20e6
dhd | Kc cell number, rep 1 = 6.20e5; S2R+ cell number, rep 1 = 8.34e5
Saysd1 | Kc cell number, rep 1 = 1.43e6; Kc cell number, rep 2 = 1.46e6; S2R+ cell number, rep 1 = 1.00e6; S2R+ cell number, rep 2 = 1.09e6
csw | Kc cell number, rep 1 = 1.44e6; Kc cell number, rep 2 = 1.45e6; S2R+ cell number, rep 1 = 9.96e5; S2R+ cell number, rep 2 = 1.11e6

2 neighbouring entries from above, for reference:
ppk16 | Kc cell number, rep 1 = 1.54e6; Kc cell number, rep 2 = 1.58e6; S2R+ cell number, rep 1 = 1.23e6; S2R+ cell number, rep 2 = 1.46e6
AcCoAS #1 | Kc cell number, rep 1 = 1.34e6; Kc cell number, rep 2 = 1.40e6; S2R+ cell number, rep 1 = 9.97e5; S2R+ cell number, rep 2 = 1.11e6
